# Results are given in words; binding and its absence hold for the method and conditions named. Binding seen in cells or lysates may run through a third protein. These calls come from enrichment with a bait or labelling near it, and not all partners need be listed. Where a sequence is shown, tags or fusion partners need not be part of it.
# B1: E. coli methionine S-adenosyltransferase (MAT), recombinant, C-terminal His6 (enzyme, E. coli MG1655, UniProt P0A817 1-384, looked up)
# chain: MAKHLFTSESVSEGHPDKIADQISDAVLDAILEQDPKARVACETYVKTGMVLVGGEITTSAWVDIEEITRNTVREIGYVHSDMGFDANSCAVLSAIGKQSPDINQGVDRADPLEQGAGDQGLMFGYATNETDVLMPAPITYAHRLVQRQAEVRKNGTLPWLRPDAKSQVTFQYDDGKIVGIDAVVLSTQHSEEIDQKSLQEAVMEEIIKPILPAEWLTSATKFFINPTGRFVIGGPMGDCGLTGRKIIVDTYGGMARHGGGAFSGKDPSKVDRSAAYAARYVAKNIVAAGLADRCEIQVSYAIGVAEPTSIMVETFGTEKVPSEQLTLLVREFFDLRPYGLIQMLDLLHPIYKETAAYGHFGREHFPWEKTDKAQLLRDAAGLK
# notes: Homotetramer (dimer of dimers); also called EcMAT; E. coli MAT; source: E. coli BL21(DE3) (pET24a), purified (Ni-NTA, SEC)
# Biological target: T1, S-Adenosylmethionine lyase (SAMase) of bacteriophage T3, C-terminal His-tagged (bacteriophage T3) (UniProt P07693)
# T1 sequence: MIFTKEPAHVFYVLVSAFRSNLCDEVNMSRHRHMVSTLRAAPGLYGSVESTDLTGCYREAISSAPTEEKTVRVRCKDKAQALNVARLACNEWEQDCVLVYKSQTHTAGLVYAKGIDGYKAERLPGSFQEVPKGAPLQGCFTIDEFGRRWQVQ
# Assay: affinity purification with mass spectrometry; His-tagged SAMase expressed in E. coli, Ni-NTA then SEC (Superdex 200, 25 mM Tris pH 8.0, 150 mM KCl, 1 mM DTT); co-purifying ∼43 kDa band cut from SDS-PAGE and identified by LC-MS/MS
binder,measurement,value
B1,binding,binds
